In patent publication US10292395B2, “3H-pyrrolopyridine compound, N-oxide thereof or salt thereof, agricultural and horticultural insecticide comprising the compound and method for using the same” (Nihon Nohyaku Co., Ltd., priority 2015, dated 2019):
Some results were stated once for a whole list of compounds, not compound by compound.

How the values were obtained:
Assay type in all cases: in vivo
Myzus persicae = experiment: Test of control effect on Myzus persicae (foliar application to potted Chinese cabbage); conditions: 500 ppm, Chinese cabbage plants, 6 days after application
Plutella xylostella = experiment: Insecticidal test on Plutella xylostella (dip of Chinese cabbage seedlings with laid eggs); conditions: 500 ppm, seedlings with laid eggs dipped about 30 seconds, 25° C., 6 days after dip treatment
Description: Insecticidal Test on Plutella xylostella
Adults of Plutella xylostella were released onto Chinese cabbage seedlings and allowed to lay eggs thereon. At 2 days after the release of the adults, the Chinese cabbage seedlings with laid eggs were dipped for about 30 seconds in agrochemical dispersions diluted to 500 ppm, each of which contained a different condensed heterocyclic compound represented by the general formula (1) of the present invention as an active ingredient. After air-dried, the seedlings were kept in a thermostatic chamber at 25° C. At 6 days after the dip treatment, the number of hatched larvae per plot was counted, the mortality rate was calculated according to the formula shown below, and the insecticidal effect was evaluated according to the criteria of Test Example 1. This test was conducted in triplicate using 10 adults of Plutella xylostella per plot. Corrected mortality rate (%)=100×(Number of hatched larvae in a non-treatment plot−Number of hatched larvae in a treatment plot)/Number of hatched larvae in a non-treatment plot [Math. 3]

Laodelphax striatella = experiment: Insecticidal test on Laodelphax striatella (rice seedling dip); conditions: 500 ppm, rice seedlings dipped 30 seconds, 3rd-instar larvae, 8 days after inoculation
Description: Insecticidal Test on Laodelphax striatella
The condensed heterocyclic compounds represented by the general formula (1) of the present invention or salts thereof were separately dispersed in water and diluted to 500 ppm, and rice plant seedlings (variety: Nihonbare) were dipped in the agrochemical dispersions for 30 seconds. After air-dried, each seedling was put into a separate glass test tube and inoculated with ten 3rd-instar larvae of Laodelphax striatella, and then the glass test tubes were capped with cotton plugs. At 8 days after the inoculation, the numbers of surviving larvae and dead larvae were counted, the corrected mortality rate was calculated according to the formula shown below, and the insecticidal effect was evaluated according to the criteria of Test Example 1. Corrected mortality rate (%)=100×(Survival rate in a non-treatment plot−Survival rate in a treatment plot)/Survival rate in a non-treatment plot [Math. 2]

CCS(=O)(=O)c1cc(I)cnc1C1=Nc2cc(C(F)(F)F)cnc2C1(F)Cl (stereo not drawn) [Compound 1-180]
A (the control rate is 100%): control effect (control rate), activity level (Myzus persicae) | insecticidal effect (corrected mortality rate), activity level (Plutella xylostella) | insecticidal effect (corrected mortality rate), activity level (Laodelphax striatella)

CCS(=O)(=O)c1cc(I)cnc1C1=Nc2cc(C(F)(F)F)cnc2C1(Cl)Cl [Compound 1-181]
A (the control rate is 100%): control effect (control rate), activity level (Myzus persicae) | insecticidal effect (corrected mortality rate), activity level (Plutella xylostella) | insecticidal effect (corrected mortality rate), activity level (Laodelphax striatella)

CCS(=O)(=O)c1cc(C2CC2)cnc1C1=Nc2cc(C(F)(F)F)cnc2C1(Cl)Cl [Compound 1-183]
A (the control rate is 100%): control effect (control rate), activity level (Myzus persicae) | insecticidal effect (corrected mortality rate), activity level (Plutella xylostella) | insecticidal effect (corrected mortality rate), activity level (Laodelphax striatella)

CCS(=O)(=O)c1cc(-c2ccc(Cl)cc2)cnc1C1=Nc2cc(C(F)(F)F)cnc2C1(F)F [Compound 1-184]
A (the control rate is 100%): control effect (control rate), activity level (Myzus persicae) | insecticidal effect (corrected mortality rate), activity level (Plutella xylostella) | insecticidal effect (corrected mortality rate), activity level (Laodelphax striatella)

CCS(=O)(=O)c1cc(-n2ccc(C(F)(F)F)n2)cnc1C1=Nc2cc(C(F)(F)F)cnc2C1(F)F [Compound 1-194]
A (the control rate is 100%): control effect (control rate), activity level (Myzus persicae) | insecticidal effect (corrected mortality rate), activity level (Plutella xylostella) | insecticidal effect (corrected mortality rate), activity level (Laodelphax striatella)

CCS(=O)(=O)c1cc(-c2cccnc2)cnc1C1=Nc2cc(C(F)(F)F)cnc2C1(F)F [Compound 1-200]
A (the control rate is 100%): control effect (control rate), activity level (Myzus persicae) | insecticidal effect (corrected mortality rate), activity level (Plutella xylostella) | insecticidal effect (corrected mortality rate), activity level (Laodelphax striatella)

CCS(=O)(=O)c1cc(-c2cccnc2)cnc1C1=Nc2cc(C(F)(F)F)cnc2C1(Cl)Cl [Compound 1-202]
A (the control rate is 100%): control effect (control rate), activity level (Myzus persicae) | insecticidal effect (corrected mortality rate), activity level (Plutella xylostella) | insecticidal effect (corrected mortality rate), activity level (Laodelphax striatella)

CCS(=O)(=O)c1cc(-c2cc(F)cc(F)c2)cnc1C1=Nc2cc(C(F)(F)F)cnc2C1(F)F [Compound 1-209]
A (the control rate is 100%): control effect (control rate), activity level (Myzus persicae) | insecticidal effect (corrected mortality rate), activity level (Plutella xylostella) | insecticidal effect (corrected mortality rate), activity level (Laodelphax striatella)

CCS(=O)(=O)c1cc(-c2cc(F)cc(F)c2)cnc1C1=Nc2cc(C(F)(F)F)cnc2C1(Cl)Cl [Compound 1-211]
A (the control rate is 100%): control effect (control rate), activity level (Myzus persicae) | insecticidal effect (corrected mortality rate), activity level (Plutella xylostella) | insecticidal effect (corrected mortality rate), activity level (Laodelphax striatella)

CCS(=O)(=O)c1cc(-c2ccsc2)cnc1C1=Nc2cc(C(F)(F)F)cnc2C1(F)F [Compound 1-212]
A (the control rate is 100%): control effect (control rate), activity level (Myzus persicae) | insecticidal effect (corrected mortality rate), activity level (Plutella xylostella) | insecticidal effect (corrected mortality rate), activity level (Laodelphax striatella)

CCS(=O)(=O)c1cc(-c2ccccc2C(F)(F)F)cnc1C1=Nc2cc(C(F)(F)F)cnc2C1(F)F [Compound 1-224]
A (the control rate is 100%): control effect (control rate), activity level (Myzus persicae) | insecticidal effect (corrected mortality rate), activity level (Plutella xylostella) | insecticidal effect (corrected mortality rate), activity level (Laodelphax striatella)

CCS(=O)(=O)c1cc(-c2ccccc2C(F)(F)F)cnc1C1=Nc2cc(C(F)(F)F)cnc2C1(Cl)Cl [Compound 1-226]
A (the control rate is 100%): control effect (control rate), activity level (Myzus persicae) | insecticidal effect (corrected mortality rate), activity level (Plutella xylostella) | insecticidal effect (corrected mortality rate), activity level (Laodelphax striatella)

CCS(=O)(=O)c1cc(-c2cccc(Cl)c2)cnc1C1=Nc2cc(C(F)(F)F)cnc2C1(F)F [Compound 1-239]
A (the control rate is 100%): control effect (control rate), activity level (Myzus persicae) | insecticidal effect (corrected mortality rate), activity level (Plutella xylostella) | insecticidal effect (corrected mortality rate), activity level (Laodelphax striatella)

CCS(=O)(=O)c1cc(-c2cccc(Cl)c2)cnc1C1=Nc2cc(C(F)(F)F)cnc2C1(Cl)Cl [Compound 1-241]
A (the control rate is 100%): control effect (control rate), activity level (Myzus persicae) | insecticidal effect (corrected mortality rate), activity level (Plutella xylostella) | insecticidal effect (corrected mortality rate), activity level (Laodelphax striatella)

CCS(=O)(=O)c1cc(-c2cccc(C#N)c2)cnc1C1=Nc2cc(C(F)(F)F)cnc2C1(F)F [Compound 1-257]
A (the control rate is 100%): control effect (control rate), activity level (Myzus persicae) | insecticidal effect (corrected mortality rate), activity level (Plutella xylostella) | insecticidal effect (corrected mortality rate), activity level (Laodelphax striatella)

CCS(=O)(=O)c1cc(OCC(F)(F)F)cnc1C1=Nc2cc(C(F)(F)F)cnc2C1(F)F [Compound 1-287]
A (the control rate is 100%): control effect (control rate), activity level (Myzus persicae) | insecticidal effect (corrected mortality rate), activity level (Plutella xylostella) | insecticidal effect (corrected mortality rate), activity level (Laodelphax striatella)

CCOc1cnc(C2=Nc3cc(C(F)(F)F)cnc3C2(Cl)Cl)c(S(=O)(=O)CC)c1 [Compound 1-290]
A (the control rate is 100%): control effect (control rate), activity level (Myzus persicae) | insecticidal effect (corrected mortality rate), activity level (Plutella xylostella) | insecticidal effect (corrected mortality rate), activity level (Laodelphax striatella)

CCS(=O)(=O)c1cc(C(F)(F)F)cnc1C1=Nc2cc(C(F)(F)F)ccc2C1(F)F [Compound 2-1]
A (the control rate is 100%): control effect (control rate), activity level (Myzus persicae) | insecticidal effect (corrected mortality rate), activity level (Plutella xylostella) | insecticidal effect (corrected mortality rate), activity level (Laodelphax striatella)

CCS(=O)(=O)c1cc(C(F)(F)F)cnc1C1=Nc2cc(C(F)(F)F)ccc2C1(Cl)Cl [Compound 2-3]
A (the control rate is 100%): control effect (control rate), activity level (Myzus persicae) | insecticidal effect (corrected mortality rate), activity level (Plutella xylostella) | insecticidal effect (corrected mortality rate), activity level (Laodelphax striatella)

CCS(=O)(=O)c1cc(-c2ccc(F)cc2)cnc1C1=Nc2cc(C(F)(F)F)ccc2C1(F)F [Compound 2-13]
A (the control rate is 100%): control effect (control rate), activity level (Myzus persicae) | insecticidal effect (corrected mortality rate), activity level (Plutella xylostella) | insecticidal effect (corrected mortality rate), activity level (Laodelphax striatella)

CCS(=O)(=O)c1cc(-c2cccc(C(F)(F)F)c2)cnc1C1=Nc2cc(C(F)(F)F)ccc2C1(F)F [Compound 2-16]
A (the control rate is 100%): control effect (control rate), activity level (Myzus persicae) | insecticidal effect (corrected mortality rate), activity level (Plutella xylostella) | insecticidal effect (corrected mortality rate), activity level (Laodelphax striatella)
